# Primary screen of a compound library

Data taken from ChEMBL document CHEMBL3988442, “University of Dundee, Small-Polar-MMV Screening Library” (2021).

Results are given as percent effect. The controls that fix the scale are not given in the record; negative values are as filed. The compounds are a random part of those screened. Two or more numbers in one place are separate tests of the same structure; such repeats can differ widely.

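Viability assay of Plasmodium falciparum sporozoites; the read-out is not stated. The concentration is filed as 10 mM, unlikely as a test dose, so the dose is not known. Higher reads as lower viability (inferred: compounds with an IC50 in retests scored well above the rest). Strong results were mostly tested again. About 34,000 compounds were tested under these conditions; 0.84% (about 280) showed 50% or more at least once.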

| SMILES | effect |
|---|---|
| `CCc1nc(CN2CCCN(C(=O)c3cn[nH]c3C)CC2)cs1` | 9.691% |
| `Cc1ccc(C(=O)O)cc1S(=O)(=O)Nc1nn(-c2ccccc2)cc1C` | -7.91% |
| `c1cnnc(N2CCCC2CNCc2nc(-c3ccco3)no2)c1` (stereo not given) | 9.866% |
| `O=C(O)CC(O)(CC(=O)O)C(=O)O.c1cnc2[nH]nc(C3CCN(Cc4ccsc4)CC3)c2c1` | -10.27% |
| `C[C@H](NS(C)(=O)=O)C(=O)NCc1cc(-c2ccco2)n[nH]1` | -6.52% |
| `Cc1ccc([C@@H]2CN(C(=O)c3cc[nH]c3)C[C@H]2NC(=O)C2CC2)cc1` | 3.859% |
| `O=C(O)C(F)(F)F.[H][C@@]12OCCN(c3ncc(F)cn3)[C@@]1([H])CC[C@H]2OCCN1CCCC1` | -2.102% |
| `Cc1ccc(NC(=O)NCCc2cnn(C)c2)c(N(C)C)n1` | -6.63% |
| `O=C(O)C(F)(F)F.O=C(O)C(F)(F)F.[H][C@@]12CN(CC3CC3)C[C@]1([H])OCCN2c1ccc(C)nn1` | -16.69% |
| `OCC(O)CSCc1ccc(F)cc1Cl` (stereo not given) | -0.3552% |
| `Cn1c(CN2CCCC(Cn3cc(CCO)nn3)C2)cc2ccccc21` (stereo not given) | -10.25% |
| `[H][C@@]12CCN(C(=O)c3cccs3)C[C@@]1([H])O[C@H](c1nnc(C3CC3)o1)C2` | -9.319% |
| `O=C1CC(N(C(=O)c2ccc(Cl)c(Cl)c2)C2CC2)C(=O)N1` (stereo not given) | 9.366% |
| `O=c1[nH]c2c(c(=O)n1C1CCCCC1)CCC2Nc1ccccc1` (stereo not given) | -3.728% |
| `NC(=O)C1CN(c2ccc(Br)cn2)CCO1` (stereo not given) | -39.17% and -33.44% |
| `O=C(O)C(F)(F)F.O=C(O)C(F)(F)F.[H][C@@]12COC[C@]1([H])[C@@H](OCc1cccnc1)CN2Cc1ccco1` | 7.861% |
| `c1ccc(-n2ncc(CNCC3CCCN3c3cccnn3)n2)cc1` (stereo not given) | 8.883% |
| `O=C1CCC[C@]2(CN(S(=O)(=O)N3CCOCC3)C[C@H]2c2cccnc2)N1` | 17.3% |
| `CC(C)c1nn(C)c(N(C)C)c1CNCc1cccc(CN(C)C)c1.Cl` | 8.557% |
| `CC[C@H](C)Nc1nccc(-c2cnc3sc(C)c(C)n3c2=O)n1` | -9.559% |
| `CNC(=O)NC(=O)CN1CCCC(Cc2ccccc2OC)C1` (stereo not given) | 4.459% |
| `CCc1ccc(CNC(=O)N2CCN(Cc3cc(C)on3)CC2)s1` | 12.39% |
| `O=C(c1ccnc(-n2ccnc2)c1)N1CCCC(n2cccn2)C1` (stereo not given) | -9.498% |
| `Cc1csc2c(C3CCN(CCCOc4ccccc4)CC3)nc(C)n12` | -58.83% |
| `Cc1ccnc(NC(=O)c2ccc(Cl)o2)c1` | 72.69% and 57.82% |
| `Cc1nc(C2CCCCN2S(C)(=O)=O)no1` (stereo not given) | 11.82% |
| `CC(C)c1nc(CS(=O)(=O)Cc2noc(C3CC3)n2)cs1` | 11.75% |
| `CCc1ncncc1C(=O)N1CCOC(c2nc(C)n[nH]2)C1` (stereo not given) | -35.65% and -8.353% and -32.01% |
| `O=S(=O)(NCc1ccccc1)N(Cc1ccccn1)CC1CCCO1` (stereo not given) | -31.54% |
| `COc1cc(CN(C)C(=O)NCc2nccs2)ccc1SC` | 6.272% |
| `CC(=O)N1N=C(c2ccco2)OC1C(=O)NCCc1ccc(F)cc1` (stereo not given) | -15.96% |
| `COc1ccc(OC)c(CCNc2ncc(S(N)(=O)=O)s2)c1` | -12.34% |
| `Cc1cc(C(=O)N2CCC(C)CC2)ccc1NS(C)(=O)=O` | -8.684% |
| `COc1ccc(-n2ncc3c2NC(=O)CSC3C(C)C)cc1` (stereo not given) | -10.71% |
| `O=C(O)C(F)(F)F.O=C(O)C(F)(F)F.[H][C@@]12CCN(Cc3ccccn3)[C@]1([H])CC[C@H](COCC(=O)N(C)C)O2` | -8.117% |
| `CC(C(=O)NCc1ccnc(N2CCN(C)CC2)c1)n1cccn1` (stereo not given) | -0.3298% |
| `CC(NC(=O)N1CCC(OCc2ccccc2)CC1)c1nncn1C` (stereo not given) | -18.63% |
| `COCCNC(=O)Cn1ccc2cccc(OC)c21` | 24.03% and 24.86% |
| `[H][C@]12CN(Cc3ccccn3)CCN1C[C@H](c1ccccc1)[C@H]2C(=O)NC` | -37.6% |
| `O=C(CCc1nc(-c2cccnc2)no1)N(CC1CCOC1)C1CC1` (stereo not given) | 2.775% |
| `O=C(O)C(F)(F)F.O=C(c1cnccn1)N1CCOCC2(CCN(C3CCOCC3)C2)C1` (stereo not given) | -3.289% |
| `CC(C)CC(NC(=O)c1ccco1)c1nc2cccnc2n1C` (stereo not given) | 11.49% |
| `Cl.OC1CCN(Cc2c(C3CCCNC3)[nH]c3ncccc23)CC1` (stereo not given) | -12.2% |
| `Fc1ccc(CN2CCC(c3n[nH]c4nccnc34)CC2)cc1F` | -7.701% |
| `Cc1ccc(N2CC[C@H](OCC3CC3)[C@@H]2Cc2ccncc2)nn1` | -0.2568% |
| `CN(Cc1ccc2c(c1)OCO2)Cc1nc(-c2ccco2)no1` | -0.3552% |
| `CC(O)CN1CCN(Cc2cccc(C#N)c2)CC1` (stereo not given) | 2.997% |
| `O=C(CNC(=O)N1CCc2c([nH]c3ccc(Cl)cc23)C1)NC1CCCC1` | -15.54% and -22.05% |

5 of the entries, repeated:

SMILES,effect
CC(C)c1nc(CS(=O)(=O)Cc2noc(C3CC3)n2)cs1,11.75%
O=C(O)C(F)(F)F.O=C(O)C(F)(F)F.[H][C@@]12COC[C@]1([H])[C@@H](OCc1cccnc1)CN2Cc1ccco1,7.861%
Cl.OC1CCN(Cc2c(C3CCCNC3)[nH]c3ncccc23)CC1 (stereo not given),-12.2%
Cc1csc2c(C3CCN(CCCOc4ccccc4)CC3)nc(C)n12,-58.83%
CNC(=O)NC(=O)CN1CCCC(Cc2ccccc2OC)C1 (stereo not given),4.459%